At least one compound was matched to its structure with a doubt left.
Experiments:
[1] = system: controlled cortical impact (CCI)-induced TBI; test: Elevated Body Swing Test (EBST) after CCI-induced TBI; type: in vivo, Sprague-Dawley rats; settings: 24 hrs after TBI, vs TBI/vehicle; for biased swinging behavior (EBST): P<0.05
[2] = system: controlled cortical impact (CCI)-induced TBI; test: Stereological counts of NeuN-positive neurons in hippocampal CA2-3 after CCI-induced TBI; type: in vivo, Sprague-Dawley rats; settings: 24 hrs after TBI, vs TBI/vehicle, P<0.01
[3] = 3 mg/kg i.v. single dose at 0 hr post-TBI
[4] = 3 mg/kg i.v. single dose at 3 hrs post-TBI

CCN1CCN(Cc2ccc(Nc3ncc(F)c(-c4cc(F)c5nc(C)n(C(C)C)c5c4)n3)nc2)CC1 [abemaciclib]
biased swinging behavior (EBST) [1, 3]: significantly reduced
biased swinging behavior (EBST) [1, 4]: significantly reduced
motor deficits (EBST biased swinging) ([1]; 3 mg/kg i.v. single dose at 6 hrs post-TBI (delayed)): reduced the motor deficits, though not significantly
loss of hippocampal neurons (NeuN+ cells, ipsilateral CA2-3) [2, 3]: significantly attenuated
loss of hippocampal neurons (NeuN+ cells, ipsilateral CA2-3) [2, 4]: significantly attenuated
loss of hippocampal neurons (NeuN+ cells, ipsilateral CA2-3) ([2]; 3 mg/kg i.v. single dose at 6 hrs post-TBI): significantly attenuated
